This is an account of results in PMC3324469, “Preparation and Characterization of the Extracellular Domain of Human Sid-1” (PLoS ONE, 2012).

Results are given in words; binding and its absence hold for the method and conditions named. Some results given as binding are weak or reduced against the parent protein; the word gives no strength.

This assay concerns the target extracellular domain of human SidT1 (SidT1 ECD), glycosylated, secreted from insect cells (human) (UniProt Q9NXL6). Put plainly: SEC; re-injection of the fractions containing the putative tetramer; data not shown; both purified. (In gel filtration, larger molecules generally elute earlier.)

B1: extracellular domain of human SidT1 (SidT1 ECD), glycosylated, secreted from insect cells (domain or fragment)
chain: GAASPGHPAKSPRQPPAPRRDPFDAARGADFDHVYSGVVNLSTENIYSFNYTSQPDQVTAVRVYVNSSSENLNYPVLVVVRQQKEVLSWQVPLLFQGLYQRSYNYQEVSRTLCPSEATNETGPLQQLIFVDVASMAPLGAQYKLLVTKLKHFQLRTNVAFHFTASPSQPQYFLYKFPKDVDSVIIKVVSEMAYPCSVVSVQNIMCPVYDLDHNVEFNGVYQSMTKKAAITLQKKDFPGEQFFVVFVIKPEDYACGGSFFIQEKENQTWNLQRKKNLEVTIVPSIKES
modifications: N-linked glycosylation (sites not given)
notes: N-terminal glycine appendage left from the TEV protease site; human SidT1 (Sid-1 homolog), extracellular domain, residues 19-304 of Entrez Protein AAI17223, after signal peptidase and TEV cleavage; also called SidT1 extracellular domain; recombinant SidT1 ECD; source: Tni (usually) or Sf9 insect cells, baculovirus, secreted into the medium; not shown: His6, N-terminal, cleaved
B1: the binding entry is recorded as “binds”.
